This note sets out measurements from the supplement of paper PMC10994270.

This experiment concerns SORL1-/- neural progenitor cells (hiPSC WTSIi004-B derived). Nature of the experiment: probability of classification as wild-type phenotype (neural network, relative to DMSO-treated WT vs SORL1-/- controls) (fraction); higher = more similar to wild-type morphology (phenotypic rescue). As to conditions: 24 h.
[1] abbreviates: 1000 nM, SORL1-/- sub-clone: WB8.

This is one part of the list.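 How the source made its calls: active = probability of classifying as wild-type above 0.505; inactive = 0.505 or below.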 Single values are uncertain, as repeats are few or missing.

For the compound `O.O=P1(N(CCCl)CCCl)NCCCO1` (centres undefined) [Cyclophosphamide monohydrate], the probability (300 nM, SORL1-/- sub-clone: WB8) is active: 0.991. On to `NCC1(CC(=O)O)CCCCC1` [Gabapentin], for which the probability under setting [1] was active: 0.784.

With `O=C(O)CCCc1ccc(N(CCCl)CCCl)cc1` [Chloroambucil], the probability under setting [1] is active: 0.999. For `CCC1=C[C@@H]2CN3CCc4c([nH]c5ccccc45)[C@@](C(=O)OC)(C2)[C@@H]13` [Catharanthine], where the note is “1000 nM, SORL1-/- sub-clone: WC7”, the probability is active: 0.648.
